Data published in the supplement of paper PMC9135407.
Values joined by “and” are separate entries in the source; they are usually repeats but may differ in a detail not shown here. Equal values may be shown once. Where a name gives a salt, the structure may show the parent alone. ± gives the standard deviation of the averaged measurements. The list shows a part of the results. Baselines shift from plate to plate; read single values as rough.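 Primary human stellate myofibroblasts activated in culture; inactivation shown by regained lipid droplets. Readout: fraction of Hoechst-counted cells exceeding a per-plate Bodipy threshold, duplicate wells, each plate with DMSO negative and nortriptyline positive controls. Hits: control-normalized score beyond the plate's top-tenth-percentile nortriptyline wells, or among its three best wells. Final well concentrations unstated.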

System: primary human hepatic stellate cells (donor 1)
Assay: percent Bodipy-positive cells; higher = more lipid droplet accumulation
Conditions: 48 h
[1] = library stock concentration: 10 mM
[2] = library stock concentration: 3.33 mM
[3] = library stock concentration: 7.7 mM
[4] = library stock concentration: 1 mM
[5] = library stock concentration: 9.2 mM
[6] = library stock concentration: 3.1 mM

C/C=C(\C)C(=O)O[C@H]1C[C@@H](OC(C)=O)[C@@]2(C(=O)OC)CO[C@H]3[C@@H](O)[C@@](C)([C@]45O[C@@]4(C)[C@H]4C[C@@H]5O[C@@H]5OC=C[C@@]54O)[C@H]4[C@]1(CO[C@]4(O)C(=O)OC)[C@@H]32 [Azadirachtin]
percent Bodipy-positive cells [1]: 46.9 ± 11%

CC(C(=O)OC1CC2CCC(C1)N2C)c1ccc(Br)cc1.O=C(O)/C=C\C(=O)O (stereo not given) [PG-9 maleate]
percent Bodipy-positive cells [1]: 58.8 ± 2.1%

CC(=O)[O][Hg][c]1ccccc1 [Phenylmercuric acetate]
percent Bodipy-positive cells (library stock concentration: 5.9 mM): 82 ± 13%
percent Bodipy-positive cells [1]: 92.1 ± 3%

O=c1[nH]c2ccccc2n1C1CCN(CCCC(c2ccc(F)cc2)c2ccc(F)cc2)CC1 [Pimozide]
percent Bodipy-positive cells: 39.7 ± 1.7%
percent Bodipy-positive cells [1]: 33.1 ± 6.5%

C#CCN(C)[C@H](C)Cc1ccccc1 [Benzeneethanamine, N,Alpha-dimethyl-N-2-propynyl-(R)- [CAS]]
percent Bodipy-positive cells [1]: 7.33 ± 3.1%

C#CCN(C)[C@H](C)Cc1ccccc1 [Selegiline hydrochloride]
percent Bodipy-positive cells: 18.8 ± 0.56%
percent Bodipy-positive cells (library stock concentration: 8.9 mM): 11.5 ± 4.6%

C#CCN(C)[C@H](C)Cc1ccccc1 [Selegiline]
percent Bodipy-positive cells (library stock concentration: 10.7 mM): 8.55 ± 1.9%

CN1CCN(c2nc3ccccc3nc2Cl)CC1
percent Bodipy-positive cells [2]: 6.53 ± 2.6%
percent Bodipy-positive cells [1]: 36.2 ± 4.4%

CN(C)C(=O)Oc1ccc[n+](C)c1 [Pyridostigmine Bromide]
percent Bodipy-positive cells [2]: 7.44 ± 2.2%
percent Bodipy-positive cells [1]: 9.74 ± 0.32%

CN(C)C(=O)Oc1ccc[n+](C)c1 [Mestinon]
percent Bodipy-positive cells [1]: 26.3 ± 3.2%

CN(C)C(=O)Oc1ccc[n+](C)c1 [Pyridostigmine bromide]
percent Bodipy-positive cells [3]: 8.83 ± 3.6%

C[C@@H]1O[C@@H](O[C@@H]2C=C3CC[C@@H]4[C@H](CC[C@]5(C)[C@@H](c6ccc(=O)oc6)CC[C@]45O)[C@@]3(C)CC2)[C@H](O)[C@H](O)[C@H]1O [Proscillaridin A]
percent Bodipy-positive cells: 67.4 ± 4.1%

N[C@H](C(=O)O)c1cc(O)no1 [Ibotenic acid]
percent Bodipy-positive cells [1]: 7.66 ± 0.84%

N[C@H](C(=O)O)c1cc(O)no1 [(?)-Ibotenic acid]
percent Bodipy-positive cells [1]: 41.2 ± 2.6%

CCN1CC2(OC(=O)c3ccccc3NC(C)=O)CCC(OC)C34C1C(CC23)C1(O)CC(OC)C2CC4C1(O)C2OC (stereo not given) [Lappaconite HBr]
percent Bodipy-positive cells [2]: 12.2 ± 4.3%
percent Bodipy-positive cells [1]: 13.3 ± 7.4%

CCCCC/C=C\C/C=C\C/C=C\C/C=C\CCCC(=O)NCc1ccoc1
percent Bodipy-positive cells [4]: 15.6 ± 1.3%

C[C@]12CC[C@@H](O)C[C@H]1CC[C@@H]1[C@@H]2CC[C@]2(C)C(=O)CC[C@@H]12 [3-alpha-Hydroxy-5-beta-androstan-17-one]
percent Bodipy-positive cells: 15.6 ± 0.27%

CC(N)c1cccc(Cl)c1Cl (stereo not given)
percent Bodipy-positive cells [1]: 68.6 ± 7.7%

CN1CCC2=C[C@H](O)[C@H]3OC(=O)c4cc5c(cc4[C@H]3[C@@H]21)OCO5 [Hippeastrine hydrobromide]
percent Bodipy-positive cells: 11.2 ± 2.4%

N#CC(C#N)=Cc1ccc([N+](=O)[O-])c(O)c1
percent Bodipy-positive cells [4]: 10.7 ± 5%

N#CC(C#N)=Cc1ccc([N+](=O)[O-])c(O)c1 [Tyrphostin AG-126]
percent Bodipy-positive cells (library stock concentration: 23.2 mM): 15 ± 0.21%

O=[N+]([O-])OCC(CO[N+](=O)[O-])O[N+](=O)[O-] [Nitroglycerin]
percent Bodipy-positive cells (library stock concentration: 8.8 mM): 56.7 ± 6.3%

CCN(CC)C(=O)c1ccc(C2=CC3(CCNCC3)Oc3cccc(O)c32)cc1
percent Bodipy-positive cells [2]: 20.8 ± 4.1%
percent Bodipy-positive cells [1]: 49 ± 2.6%

O=S1(=O)N(CCN2CC=C(c3c[nH]c4cc(F)ccc34)CC2)c2cccc3c2N1CCC3
percent Bodipy-positive cells [1]: 58.3 ± 7.5%

CC[C@H]1CN2CCc3cc(OC)c(OC)cc3[C@@H]2C[C@@H]1C[C@H]1NCCc2cc(OC)c(OC)cc21.Cl.Cl [Emetine dihydrochloride]
percent Bodipy-positive cells: 85.9 ± 1.1%

CN1CCN(c2ccc3ccccc3n2)CC1 [N-Methylquipazine dimaleate]
percent Bodipy-positive cells [1]: 29.3 ± 4.8%

CC1OC(OC2/C=C/C=C/C=C/C=C/CC/C=C/C=C/[C@H](C)[C@@H](O)[C@@H](C)[C@H](C)OC(=O)CC(O)CC(O)CC(O)CCC(O)C(O)C[C@]3(O)CC(O)C(C(=O)O)C(C2)O3)C(O)C(N)C1O (stereo not given in full) [Nystatine]
percent Bodipy-positive cells: 30.3 ± 8%

NCCCNCCSP(=O)(O)O [Amifostine]
percent Bodipy-positive cells (library stock concentration: 9.3 mM): 8.38 ± 2.2%
percent Bodipy-positive cells [1]: 44 ± 10%

O=[N+]([O-])c1ccc(O)c([N+](=O)[O-])c1 [2,4-dinitrophenol]
percent Bodipy-positive cells [1]: 27.2 ± 7.2%

CN=C(NS(=O)(=O)c1ccc(Cl)cc1)N1CC(c2ccccc2)C(c2ccc(Cl)cc2)=N1 (stereo not given)
percent Bodipy-positive cells [4]: 12.5 ± 5%

Clc1ccc(N2CCN(Cc3c[nH]c4ncccc34)CC2)cc1 [L-745,870 trihydrochloride]
percent Bodipy-positive cells [1]: 27.4 ± 0.38%

CCn1cnc2c(Nc3cccc(Cl)c3)nc(N[C@@H]3CCCC[C@@H]3N)nc21
percent Bodipy-positive cells (library stock concentration: 80 uM): 15.4 ± 11%
percent Bodipy-positive cells (library stock concentration: 400 uM): 13.5 ± 6%
percent Bodipy-positive cells (library stock concentration: 2 mM): 47.8 ± 9.7%
percent Bodipy-positive cells [1]: 75.2% and 100%

O=c1[nH]c2ccc(Cl)cc2c(N[C@@H]2CN3CCC2CC3)c1-c1nc2ccccc2[nH]1
percent Bodipy-positive cells [2]: 41.7 ± 10%
percent Bodipy-positive cells [1]: 96.1 ± 4%

Nc1ccc([As](=O)(O)O)cc1 [Arsanilic acid]
percent Bodipy-positive cells [5]: 8.55 ± 1%

CC1(C)[C@@H](O)C[C@H]2[C@](C)(O)[C@@H]3CC[C@@H]4[C@@H](O)[C@@]3(C[C@@H](O)[C@@]21O)C[C@@]4(C)O [Grayanotoxin III]
percent Bodipy-positive cells (library stock concentration: 13.5 mM): 13.9 ± 2.7%

CCCCCCCC/C=C\CCCCCCCC(=O)N[C@H](C)CO
percent Bodipy-positive cells [4]: 24.6 ± 1.4%

COP(=S)(OC)Oc1cc(Cl)c(Cl)cc1Cl [Ronnel]
percent Bodipy-positive cells (library stock concentration: 6.2 mM): 16.2 ± 8.5%

NCCC(O)C(=O)NC1CC(N)C(OC2OC(CN)C(O)[C@H](O)[C@@H]2N)[C@H](OC2O[C@H](CO)[C@@H](O)[C@@H]2O)[C@@H]1O (stereo not given in full) [Butirosin disulfate salt]
percent Bodipy-positive cells: 6.3 ± 1.9%

c1cc(N2CCNCC2)c2cnccc2c1 [8-piperazin-1-yl-Isoquinoline (hydrochloride)]
percent Bodipy-positive cells [4]: 8.25 ± 0.39%

CNCC(O)c1ccc(O)cc1 (stereo not given) [(?)-Synephrine]
percent Bodipy-positive cells [1]: 12.3 ± 6.1%

CNCC(O)c1ccc(O)cc1 (stereo not given) [Synephrine HCl]
percent Bodipy-positive cells [2]: 12.8 ± 4.4%
percent Bodipy-positive cells [1]: 13.2 ± 5.4%

CNCC(O)c1ccc(O)cc1 (stereo not given) [Synephrine]
percent Bodipy-positive cells [2]: 18.2 ± 2.5%
percent Bodipy-positive cells [1]: 14.4 ± 3%

CNCC(O)c1ccc(O)cc1 (stereo not given)
percent Bodipy-positive cells [1]: 6.75% and 27.7%

CC(C)NCC(O)c1ccc(N)c(C#N)c1 (stereo not given) [Cimaterol]
percent Bodipy-positive cells (library stock concentration: 9.1 mM): 10.8 ± 3.1%
percent Bodipy-positive cells [1]: 8.31 ± 2.1%
percent Bodipy-positive cells (library stock concentration: 22.8 mM): 34.6 ± 3.1%

COC(=O)[C@@]1(O)C[C@H]2O[C@]1(C)n1c3ccccc3c3c4c(c5c6ccccc6n2c5c31)C(=O)NC4
percent Bodipy-positive cells (library stock concentration: 1.1 mM): 1.97 ± 0.1%

CCC1=C[C@H]2CN3CCc4c([nH]c5ccccc45)[C@](C(=O)OC)(C2)[C@H]13 [Catharanthine]
percent Bodipy-positive cells: 36.5 ± 4.3%
percent Bodipy-positive cells [2]: 11.7 ± 0.86%
percent Bodipy-positive cells [1]: 59.2 ± 15%

C#CCOC(=O)C1=CCCN(C)C1 [Arecaidine propargyl ester hydrobromide]
percent Bodipy-positive cells [1]: 38.3 ± 3%

C#CCOC(=O)C1=CCCN(C)C1 [Arecaidine propargyl ester tosylate]
percent Bodipy-positive cells [1]: 9.16 ± 3.1%

CC(C)C[C@H]1C(=O)N2CCC[C@H]2[C@]2(O)O[C@](NC(=O)[C@@H]3C=C4c5cccc6[nH]c(Br)c(c56)C[C@H]4N(C)C3)(C(C)C)C(=O)N12 [Bromocryptine mesylate]
percent Bodipy-positive cells: 58.6 ± 18%

CC(C)C[C@H]1C(=O)N2CCC[C@H]2[C@]2(O)O[C@](NC(=O)[C@@H]3C=C4c5cccc6[nH]c(Br)c(c56)C[C@H]4N(C)C3)(C(C)C)C(=O)N12 [Bromocriptine mesylate]
percent Bodipy-positive cells [6]: 8.93 ± 0.89%
percent Bodipy-positive cells [1]: 8.31% and 15.8%

CC(C)C[C@H]1C(=O)N2CCC[C@H]2[C@]2(O)O[C@](NC(=O)[C@@H]3C=C4c5cccc6[nH]c(Br)c(c56)C[C@H]4N(C)C3)(C(C)C)C(=O)N12 [(+)-Bromocriptine methanesulfonate]
percent Bodipy-positive cells [1]: 79.9 ± 4.2%

CN1C[C@H](CNC(=O)OCc2ccccc2)C[C@@H]2c3cccc4c3c(cn4C)C[C@H]21 [Metergoline]
percent Bodipy-positive cells: 89.6 ± 2.1%

c1ccc(CCCN2CCN(CCOC(c3ccccc3)c3ccccc3)CC2)cc1
percent Bodipy-positive cells [1]: 90.7% and 66%

C=CCN1CC[C@]23c4c5ccc(O)c4O[C@H]2/C(=N/N=C2\CC[C@@]4(O)[C@H]6Cc7ccc(O)c8c7[C@@]4(CCN6CC=C)[C@H]2O8)CC[C@@]3(O)[C@H]1C5 [Naloxonazine 2HCl]
percent Bodipy-positive cells [6]: 17.4 ± 2%

C[C@]12CCC(=O)C=C1CC[C@@H]1[C@@H]2CC[C@@]2(C)[C@H]1CC[C@]2(C)O [Methyltestosterone]
percent Bodipy-positive cells [1]: 20.1 ± 5.7%

CCOc1ccccc1-n1c(C(C)N2CCN(C(=O)COc3ccc(Cl)cc3)CC2)nc2ccccc2c1=O (stereo not given) [Erastin]
percent Bodipy-positive cells [2]: 28.4 ± 4.6%
percent Bodipy-positive cells [1]: 69.8 ± 2.3%

CN1[C@@H]2CC[C@H]1C[C@@H](OC(=O)C(CO)c1ccccc1)C2 (stereo not given in full) [Atropine sulfate]
percent Bodipy-positive cells (library stock concentration: 5.2 mM): 1.59 ± 0.32%
percent Bodipy-positive cells (library stock concentration: 6.9 mM): 6.77 ± 0.59%

CN1[C@@H]2CC[C@H]1C[C@@H](OC(=O)C(CO)c1ccccc1)C2 (stereo not given in full) [Atropine sulfate monohydrate]
percent Bodipy-positive cells: 18 ± 4.5%

CN1[C@@H]2CC[C@H]1C[C@@H](OC(=O)C(CO)c1ccccc1)C2 (stereo not given in full) [Atropine]
percent Bodipy-positive cells [2]: 9.89 ± 0.4%
percent Bodipy-positive cells [1]: 16.5 ± 6%

CN1[C@@H]2CC[C@H]1C[C@@H](OC(=O)C(CO)c1ccccc1)C2 (stereo not given in full)
percent Bodipy-positive cells [1]: 33.3 ± 1.9%

c1ccc(C2CC2)c(OCC2=NCCN2)c1 [Cirazoline HCl]
percent Bodipy-positive cells [5]: 11.8 ± 2.1%

c1ccc(C2CC2)c(OCC2=NCCN2)c1 [Cirazoline]
percent Bodipy-positive cells (library stock concentration: 23.1 mM): 66.1 ± 9.1%

CN1[C@@H]2CC[C@H]1C[C@@H](OC(c1ccccc1)c1ccccc1N)C2 (stereo not given in full) [Aminobenztropine]
percent Bodipy-positive cells [1]: 76.9 ± 5%

CNC(Cc1c[nH]c2ccccc12)C(=O)O (stereo not given) [Abrine (l)]
percent Bodipy-positive cells [1]: 31.6 ± 9.6%

CNC(C)(C)Cc1ccccc1 [Mephentermine sulfate]
percent Bodipy-positive cells [3]: 22 ± 2.1%
percent Bodipy-positive cells [1]: 56.3 ± 11%

CNC(C)(C)Cc1ccccc1 [Mephentermine hemisulfate]
percent Bodipy-positive cells: 13.3 ± 5%

CCOP(=S)(OCC)Oc1cc(C)nc(C(C)C)n1
percent Bodipy-positive cells [1]: 33.4 ± 5.2%

c1ccc(CC(c2ccccc2)N2CCCCC2)cc1 (stereo not given) [(?)-1-(1,2-Diphenylethyl)piperidine maleate]
percent Bodipy-positive cells [1]: 24.3 ± 2.7%

C[C@]12CCC(=O)C(O)=C1CC[C@@H]1[C@@H]2CC[C@]2(C)C(=O)CC[C@@H]12 [Formestane]
percent Bodipy-positive cells [2]: 18.1 ± 4.2%
percent Bodipy-positive cells (library stock concentration: 6.6 mM): 15.9 ± 3.3%

C=C(C)CN1CC[C@@]23c4c5ccc(O)c4O[C@H]2c2[nH]c4ccccc4c2C[C@]3(O)C1C5 [SDM25N hydrochloride]
percent Bodipy-positive cells [1]: 60.9 ± 4.6%

NCC(CP(=O)(O)O)c1ccc(Cl)cc1 (stereo not given) [Phaclofen]
percent Bodipy-positive cells [1]: 7.57 ± 2.5%
